Experiment [1] deals with T1, OsIAA10-nLUC (rice) (UniProt Q0DWF2).
T1 sequence: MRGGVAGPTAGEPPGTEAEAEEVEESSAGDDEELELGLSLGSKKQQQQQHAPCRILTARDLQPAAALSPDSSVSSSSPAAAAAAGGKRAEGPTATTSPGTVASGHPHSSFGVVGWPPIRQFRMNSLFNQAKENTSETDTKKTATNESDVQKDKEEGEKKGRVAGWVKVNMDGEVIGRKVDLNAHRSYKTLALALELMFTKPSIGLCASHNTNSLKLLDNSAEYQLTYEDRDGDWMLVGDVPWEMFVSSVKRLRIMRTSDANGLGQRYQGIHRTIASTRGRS
Put plainly: split reporter; firefly luciferase complementation imaging (LCI): OsIAA10-nLUC and cLUC-OsARFs co-infiltrated in N. benthamiana leaves; 0.2 mM luciferin after three days; CCD imaging.

For experiment [2], the target named is T2, FLAG-tagged OsIAA10 (rice) (UniProt Q0DWF2).
T2 sequence: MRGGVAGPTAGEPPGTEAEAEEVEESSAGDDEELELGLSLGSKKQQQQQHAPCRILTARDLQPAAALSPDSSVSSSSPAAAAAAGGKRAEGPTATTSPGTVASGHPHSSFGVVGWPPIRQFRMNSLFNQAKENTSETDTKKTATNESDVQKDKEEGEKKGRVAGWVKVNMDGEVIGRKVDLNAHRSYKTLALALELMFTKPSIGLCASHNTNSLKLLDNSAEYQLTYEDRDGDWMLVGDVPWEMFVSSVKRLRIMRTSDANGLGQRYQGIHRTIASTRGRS
Kind of experiment: co-IP; HA-OsARFs and FLAG-OsIAA10 co-expressed in N. benthamiana leaves by agroinfiltration, 3 days; IP buffer 50 mM Tris-HCl pH7.5, 150 mM NaCl, 0.1% NP-40, 5 mM DTT; anti HA- mAb or anti FLAG- mAb agarose, 4°C, 1 hr; detection by blot.

Experiment [3] deals with OsARF11 expressed as a GAL4 DNA binding domain fusion (rice (cDNA of ZH11)). Kind of experiment: two-hybrid; yeast AH109 co-transformed with OsIAA10 (GAL4 AD fusion) and OsARFs (GAL4 BD fusion, bait); growth on SD/-Leu/-Trp/-His/-Ade.
The target in experiment [4] is OsARF12 expressed as a GAL4 DNA binding domain fusion (rice (cDNA of ZH11)). The experiment is described as above.
In experiment [5] the target is OsARF16 expressed as a GAL4 DNA binding domain fusion (rice (cDNA of ZH11)). The experiment is described as above.
Experiment [6] concerns the target OsARF17 expressed as a GAL4 DNA binding domain fusion (rice (cDNA of ZH11)). Described as above.
The target of experiment [7] is OsARF19 expressed as a GAL4 DNA binding domain fusion (rice (cDNA of ZH11)). The description is as above.
Experiment [8] deals with OsARF21 expressed as a GAL4 DNA binding domain fusion (rice (cDNA of ZH11)). The description is as above.
For experiment [9], the target named is OsARF25 expressed as a GAL4 DNA binding domain fusion (rice (cDNA of ZH11)). The experiment is described as above.
The target of experiment [10] is OsARF5 expressed as a GAL4 DNA binding domain fusion (rice (cDNA of ZH11)). Described as above.
Experiment [11] deals with OsARF6 expressed as a GAL4 DNA binding domain fusion (rice (cDNA of ZH11)). The experiment is described as above.

No constants are given. Whether binding was seen depends on the method and setting. Binding calls can cover weak binding; strength is not graded here. Sequences can lack the tags named with a protein. For some assays here: In cells and extracts the contact can be indirect.

cLUC-OsARF5 (rice (cDNA of ZH11)): the binding entry in [1] is reported as “no binding”. For cLUC-OsARF6 (rice (cDNA of ZH11)), in [1], the binding result is listed as “no binding”. Consider cLUC-OsARF11 (rice (cDNA of ZH11)), for which the binding entry in experiment [1] was “binds”.

On to cLUC-OsARF12 (rice (cDNA of ZH11)), for which the binding entry in [1] was “binds”. Regarding cLUC-OsARF16 (rice (cDNA of ZH11)), the binding entry in experiment [1] is recorded as “binds”. Same read-out and setting: the entry for cLUC-OsARF17 (rice (cDNA of ZH11)) is “no binding”. cLUC-OsARF19 (rice (cDNA of ZH11)): the binding entry in experiment [1] is given as “binds”. cLUC-OsARF21 (rice (cDNA of ZH11)): the binding entry in experiment [1] was “binds”. For cLUC-OsARF25 (rice (cDNA of ZH11)), the binding entry in experiment [1] was “no binding”. “hemagglutinin (HA)-tagged OsARF11 (rice (cDNA of ZH11))”: the binding result in [2] is reported as “binds”. Take “hemagglutinin (HA)-tagged OsARF12 (rice (cDNA of ZH11))”: the binding result in [2] is reported as “binds”. Consider “hemagglutinin (HA)-tagged OsARF16 (rice (cDNA of ZH11))”, for which the binding result in [2] is listed as “binds”. In the case of “hemagglutinin (HA)-tagged OsARF19 (rice (cDNA of ZH11))”, in experiment [2], the binding result is listed as “binds”.

Take “hemagglutinin (HA)-tagged OsARF21 (rice (cDNA of ZH11))”: in [2], the binding entry is “binds”.

B1: OsIAA10 expressed as a GAL4 DNA activation domain fusion (protein, UniProt Q0DWF2 1-281)
chain: MRGGVAGPTAGEPPGTEAEAEEVEESSAGDDEELELGLSLGSKKQQQQQHAPCRILTARDLQPAAALSPDSSVSSSSPAAAAAAGGKRAEGPTATTSPGTVASGHPHSSFGVVGWPPIRQFRMNSLFNQAKENTSETDTKKTATNESDVQKDKEEGEKKGRVAGWVKVNMDGEVIGRKVDLNAHRSYKTLALALELMFTKPSIGLCASHNTNSLKLLDNSAEYQLTYEDRDGDWMLVGDVPWEMFVSSVKRLRIMRTSDANGLGQRYQGIHRTIASTRGRS
Take B1: the binding result in [3], in experiment [4], in experiment [5], in experiment [6], in [7] and in experiment [8] was “binds” in each case. For the same molecule, the binding result in experiment [9], in [10] and in experiment [11] was “binds” each time.

Values taken from paper PMC7735678, “Auxin response factors (ARFs) differentially regulate rice antiviral immune response against rice dwarf virus”.
